Assay results from PubChem BioAssay AID1487 (National Center for Advancing Translational Sciences (NCATS), 2009).
The other results are listed elsewhere or left out. These are further read-outs of the screen, such as a control signal, another cell line or another target. No call is given for them. Compounds called inactive in the main read-out are mostly missing here. Potencies come from curve fits of mixed quality, noted in brackets.

Test: qHTS Assay for Modulators of Lamin A Splicing
Conditions: HeLa LMNA splicing GFP/RFP minigene ratio, 48 h
Method in brief: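 S3 HeLa stable clones carrying a lamin A-EGFP splicing minigene plus DsRed2 were seeded at 600 cells/well in Opti-MEM with 2% FBS, pin-dosed and incubated 48 h at 37°C. Acumen cytometry (488 nm) gave the GFP/RFP total-intensity ratio.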

[1] = measured here: GFP splicing reporter channel
[2] = measured here: RFP viability control channel

| Compound | AC50 [1] | AC50 [2] |
| --- | --- | --- |
| COC(=O)C1=C(C(=O)OC)[C@@H]2N(C)c3ccc(OC)cc3[C@@]23C[C@@H](C(=O)OC)N(S(=O)(=O)c2c(C)noc2C)C3=N1 | 0.158 µM [rising, single point] |  |
| COc1ccc(NC(=S)NC(=O)/C=C/c2ccco2)cc1 |  | 3.55 µM [rising, partial curve, poor fit] |
| O=C(CNC(c1ccccc1)c1ccccc1)Nc1ccccc1-c1ccccc1 |  | 35.5 µM [rising, single point] |
| Cc1ccc(CCNC(=O)c2cnc3c(C)cccn3c2=O)cc1 | 4.47 µM [falling, full curve, poor fit] | 0.708 µM [falling, full curve, poor fit] |
| COc1ccc(C(=O)/C(=C\c2ccco2)N2C=CC=CC2=C(C#N)C#N)cc1 | 2.51 µM [falling, full curve] | 3.55 µM [falling, full curve] |
| CCCNc1ccc(S(=O)(=O)N(C(C)C)C(C)C)cn1 | 0.316 µM [rising, full curve, poor fit] | 0.316 µM [rising, full curve, poor fit] |
| CC1CCCN(C(=O)c2ccc(COc3ccccc3Br)cc2)C1 (stereo unspecified) |  | 31.6 µM [rising, single point] |
| Nc1nc(COc2ccc3ccccc3c2)cs1 | 4.47 µM [rising, full curve, poor fit] |  |
| Cc1ccn2c(Nc3ccccc3C)c(-c3ccncc3)nc2c1 |  | 12.6 µM [rising, partial curve] |
| Cn1c(N)c(C(=O)COC(=O)c2cc(C3CC3)nc3ccccc23)c(=O)n(Cc2ccccc2)c1=O | 15.8 µM [rising, single point] | 20 µM [rising, single point] |
| CCCCNC(=O)CCCCCNS(=O)(=O)c1ccc(Br)cc1 | 0.00355 µM [rising, full curve, poor fit] |  |
| COc1ccc(OCc2nnc(SC(C)C(=O)Nc3nccs3)n2-c2ccccc2)cc1 (stereo unspecified) | 8.91 µM [rising, partial curve, poor fit] | 12.6 µM [rising, single point] |
| O=C(c1cc(F)c(F)cc1Cl)N1CCN(c2ccc([N+](=O)[O-])c3ncccc23)CC1 | 14.1 µM [rising, partial curve, poor fit] | 14.1 µM [rising, partial curve] |
| CCOc1ccc2nc(NCCNC(=O)C(C)(C)C)c(C)cc2c1 |  | 35.5 µM [falling, partial curve, poor fit] |
| COc1ccc(N2CCN(C(CNC(=O)C(=O)NCC3CCCO3)c3ccco3)CC2)cc1 (stereo unspecified) |  | 20 µM [rising, single point] |

An excerpt of these results, with each value named.
CCOc1ccc2nc(NCCNC(=O)C(C)(C)C)c(C)cc2c1
  AC50 [2]: 35.5 µM [falling, partial curve, poor fit]
COc1ccc(N2CCN(C(CNC(=O)C(=O)NCC3CCCO3)c3ccco3)CC2)cc1 (stereo unspecified)
  AC50 [2]: 20 µM [rising, single point]
